Here are results for 66 sequences from PubChem BioAssay AID1347423 (Functional Genomics Laboratory (NCATS/FGL), 2020).

Screen size: about 52,000 sequences; about 210 (0.4%) were called active.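 Rule for the calls: active = gene whose silencing raises cell survival under the drug, median off-target-corrected z-score across its silencing RNAs 2 or more; inactive = the rest.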 This is one part of the list.

The assay is described as follows: Resistance to Poly (ADP-Ribose) Polymerase inhibitor: Gene Identification via Genome-wide siRNA Screen. The settings on record: mouse BRCA2 R2336H ES cells, olaparib, CellTiter-Glo viability; active compounds read high. In outline: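 Mouse BRCA2 R2336H ES cells were reverse-transfected with siRNA (20 nM final), treated at 48 h with 500 nM olaparib, and read by CellTiter-Glo after 72 h. Scores: MAD-based z per siRNA, median per gene, seed off-target correction.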
Consider GGACUUUGAAGAGGACAAUTT against Dhx38, for which the z-score was inactive: -2.18.

Take “CCUUAUCUGGAGUGCGAGATT against 5330427M13Rik”: the z-score was inactive: -1.26.

As to GGAGCAUUUGUUACAAAUUTT against Ivns1abp, the z-score is inactive: -1.72.

GGGAAAGACGAGUCAAAGGTT against Gbx2: the z-score is inactive: -0.299.

As for “GCUUUCCCUUAGGCACUUUTT against 3200002M19Rik”, the z-score was inactive: -2.13.

For GGUCAUGAAUUACUAUUCCTT against Pscd2, the z-score was inactive: -0.734.

For the sequence GCUACAAUGUUUUUGGAGATT against Gc, the z-score was inactive: -0.0645.

Take GAGUCCCAUUGAUAGAGGUTT against Olfr741: the z-score is inactive: 0.112.

Consider GGAGGUGGAUCAAAUGGCATT against Gnrh2, for which the z-score is inactive: 0.673.

Turning to GGAGAAGCAAAACUUUUAATT against Snrpa1, the z-score was inactive: -1.26.

For the sequence GCACAGUGACUACAUUCCUTT against Olfr479, the z-score is inactive: -1.24.

On to GGAGAAAGCAGAGAUAAAATT against Cdc2l1, for which the z-score is inactive: -1.5.

For CCAUUGACUUACUUCUAAGTT against Ian6, the z-score was inactive: 1.68.

Consider GGAAUUCCACCUAAAAUUGTT against Ttn, for which the z-score is inactive: 0.334.

GCCGACUGGUUAAAUACAUTT against Nme3: the z-score is inactive: -0.45.

As to GGGUGGCAAGUGUACAGCUTT against Olfm3, the z-score was inactive: -0.36.

With “GCUUAUCAUCUCCAGACAGTT against 1110030H18Rik”, the z-score is inactive: 0.404.

Regarding GGCUAUGCUUUUGUCCAGUTT against Raly, the z-score was inactive: 0.0172.

Regarding GGUCAUUUUCAGAAGGCUGTT against Lynx1, the z-score is inactive: -1.01.

For the sequence GGUCACAGAAACACCAUGUTT against Klhdc4, the z-score is inactive: -0.887.

As for “GGUUACAGUAAUUCAGUGUTT against 2610019F03Rik”, the z-score is inactive: -0.0409.

Consider GGACCAAUGUUUUCUUCCUTT against Gngt2, for which the z-score was inactive: 1.04.

As to GAUGAUCAACAAUAGAUGCTT against Sprr1b, the z-score is inactive: -0.21.

Consider “GGCUUUCACACUUGAAGAATT against D11Ertd497e”, for which the z-score is inactive: 0.244.

Take GGUUUUUAGCAGUUGUAGUTT against Adam3: the z-score was inactive: 0.42.

Regarding GGGAAGUUGUCUGACUAUUTT against Cyc1, the z-score was inactive: 0.639.

Regarding CCUGAGAACAUUUUAAUCATT against Tas2r116, the z-score is inactive: -0.685.

Consider GGCUCAAGCUAUGAAGAGATT against Gstm4, for which the z-score was inactive: -1.09.

As to “GGAUAAUACAGAACAAAAGTT against 5730458D16Rik”, the z-score is inactive: 0.382.

As for GGAUGAAAUUGGAAAGGGCTT against Camkk2, the z-score is inactive: 1.9.

With GGGUGAAAUCACCUCUCAGTT against Scn2b, the z-score is inactive: 1.78.

For GGUCACCACACGAUCUACATT against Slc4a4, the z-score is inactive: 0.158.

As for CCAAUAGUGCUGAUAAUGUTT against BC021790, the z-score was inactive: -0.455.

Turning to “GCCUGUGGAAACUUUCCUGTT against 2310003H01Rik”, the z-score was inactive: 0.362.

GGGAGUGCGGAUUUCUUGUTT against Col9a2: the z-score is inactive: -0.358.

For GCGAGGGAUAAUUUAUAGATT against Prkci, the z-score is inactive: 0.204.

Consider “GCAUUUAUAUGAGAUGCAGTT against 4933403F05Rik”, for which the z-score is inactive: 0.19.

On to “CCAACAAUCCGUAUCGACCTT against 4930425N13Rik”, for which the z-score was inactive: -0.139.

Take GAGCAAUAAGCUAGGGUGATT against Olfr1428: the z-score was inactive: -0.146.

Consider GCAUCAUCAGCUGGUUCGUTT against Agpat2, for which the z-score is inactive: 0.718.

Take GGCAUUGCAUUUGAGGAUCTT against Slc35f5: the z-score was inactive: 0.802.

“GCUUCGUGAGCAAAUCCUATT against 6330407D12Rik”: the z-score is inactive: 0.656.

Turning to GGAUUUAAAUCACCUGUAATT against Tdpoz1, the z-score is inactive: 0.277.

In the case of GGAUGCAGAAACGCACGGUTT against Ltb4r1, the z-score was inactive: 0.72.

Regarding GAUCACAGUCACGAUAUAATT against Prss19, the z-score is inactive: -1.28.

As for GGUGCUAGACAGAGCUUACTT against Gdf10, the z-score was inactive: 2.39.

For GCAUCAGAGAUAUUAUUUGTT against Ube2a, the z-score was inactive: 0.862.

Regarding CCACAAUCAUUAACAAGCUTT against Arl6, the z-score is inactive: 0.364.

Turning to CCAUGGACCAAGAUCCAGATT against AA408556, the z-score was inactive: -1.41.

As for GGAGGAGUUAAAUAUGAUCTT against Cnnm4, the z-score is inactive: -0.351.

Take GGACUUUUUCUAGAAACGATT against Fbxo16: the z-score is inactive: -0.987.

As for “GGAACAUGAAAACACGAAUTT against 4933425I22Rik”, the z-score was inactive: 0.352.

With “GGAUCAUGAACUCUUAGAATT against 4930429M06Rik”, the z-score is inactive: 0.0128.

In the case of GGAAUUUGUCAUUCAGGAATT against Rad1, the z-score is inactive: 0.984.

As to GGCCAAUGCACUGUGUUACTT against Tinag, the z-score was inactive: -0.819.

As for CCUCCACUAUACGGUAAGUTT against Pla2g2c, the z-score is inactive: -1.62.

GGCACAAGGAACCUACGUUTT against Perp: the z-score is inactive: 0.752.

As for GCCUUGUUGUGUUGGCUUATT against Olfr1111, the z-score was inactive: -0.77.

As to GGUUAGCCAGCUGAAUCAATT against Cxxc4, the z-score was inactive: -1.18.

For the sequence UCACAGAAGGCUGUAUCCUTT against Olfr244, the z-score is inactive: -1.52.

For CCAUCUUACGAUUGCCUUCTT against Olfr362, the z-score is inactive: -1.65.

As to “GGAAUGUUCCUUCGAGCAGTT against 1810010N17Rik”, the z-score is inactive: 2.05.

On to GCUGAUCAAACAGAUUAUCTT against Fbxl3a, for which the z-score was inactive: 1.29.

For the sequence GGAAGCUGAGAUUUAUUUUTT against Trpc4, the z-score was inactive: 0.919.

GGACUGCUACAAAGAACAATT against C2b: the z-score is inactive: -0.596.

As for GGAAAAGUUCCAUCUAGUATT against Pole, the z-score was inactive: -1.1.
